These are yes or no findings as the source states them, for the method shown. Some entries that bind do so weakly or less than the wild type.
Key:
Settings in all cases: remark: other sources report otherwise
[1] = molecular target: T1, S. solfataricus ssDNA binding protein (SsoSSB protein) (Sulfolobus solfataricus), Q97W73; test: gel filtration, self-association
T1 chain: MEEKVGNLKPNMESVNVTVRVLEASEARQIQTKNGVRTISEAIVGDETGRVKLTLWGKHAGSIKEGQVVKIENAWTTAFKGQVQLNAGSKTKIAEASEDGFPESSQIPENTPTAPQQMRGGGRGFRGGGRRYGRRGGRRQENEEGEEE

[2] = molecular target: T1, S. solfataricus ssDNA binding protein …; test: gel filtration, self-association (discussion of the results)
[3] = molecular target: T1, S. solfataricus ssDNA binding protein …; test: analytical gel filtration (Superose 12 FPLC), self-association of the purified protein

binding [1]: binds
binding [2]: binds
binding [3]: binds
B1: S. solfataricus ssDNA binding protein (SsoSSB protein), Q97W73 1-148 (protein)
chain: T1 chain
